# “And” between values parts separate entries of the source, which are not always exact repeats. Equal values may be shown once.
# What was measured:
# P1 transporter = format: cell-based, Trypanosoma brucei; settings: for P1 transporter ΔG^0: Gibbs free energy from −RT ln(Ki); for P1 transporter δ(ΔG^0): in comparison to adenosine
# Description: Non-specific association of radiolabel with the cell pellet was determined using an identical incubation in the presence of saturating (1 mM) unlabelled adenosine.
# [1] = test system: T. brucei Lister 427 cells; assay: Nucleotide pool analysis (HPLC); format: cell-based, Trypanosoma brucei
# From the text: (1 picture or pasted object on this page, not shown here)
# The following primers were used: […]
# [2] = T. brucei treated with analogue 9
# [3] = T. brucei treated with analogue 9, 4 independent samples
smiles,measurement,setting,value
"Nc1ncnc2c1c(Br)cn2[C@@H]1O[C@H](CO)[C@@H](O)[C@H]1O [Compound 8, 7-bromotubercidin]",δ(ΔG^0) associated with the 3′-OH at P1,P1 transporter; 8 versus 10,0.382 kcal/mol
same,P1 transporter ΔG^0,P1 transporter,-7.24 kcal/mol
same,P1 transporter δ(ΔG^0),P1 transporter,2.17 kcal/mol
"Nc1ncnc2c1ccn2[C@@H]1O[C@H](CO)C[C@H]1O [Compound 9, 3’-deoxytubercidin]",intracellular fate in T. brucei,[1]; 25 μM,"internalized and metabolized by T. brucei to mono-, di- and triphosphates"
same,9-DP,[1]; [2],4.816 pmol/million cells and 4.114 pmol/million cells and 3.369 pmol/million cells and 6.646 pmol/million cells
same,"9-DP, concentration in sample",[1]; [2],3.211 µM and 2.742 µM and 2.246 µM and 4.43 µM
same,9-TP,[1]; [2],2.086 pmol/million cells and 2.111 pmol/million cells and 2.5512 pmol/million cells and 2.95 pmol/million cells
same,"9-TP, concentration in sample",[1]; [2],1.39 µM and 1.407 µM and 1.7008 µM and 1.967 µM
same,ATP,[1]; [2],5.408 pmol/million cells and 7.169 pmol/million cells and 9.265 pmol/million cells and 6.853 pmol/million cells
same,"ATP, concentration in sample",[1]; [2],3.606 µM and 4.779 µM and 6.177 µM and 4.569 µM
same,CTP,[1]; [2],0.05947 pmol/million cells and 0.07319 pmol/million cells and 0.09378 pmol/million cells and 0.06404 pmol/million cells
same,"CTP, concentration in sample",[1]; [2],0.03965 µM and 0.0488 µM and 0.06252 µM and 0.0427 µM
same,GTP,[1]; [2],1.703 pmol/million cells and 2.243 pmol/million cells and 2.533 pmol/million cells and 2.088 pmol/million cells
same,"GTP, concentration in sample",[1]; [2],1.136 µM and 1.495 µM and 1.689 µM and 1.392 µM
same,UTP,[1]; [2],1.47 pmol/million cells and 1.938 pmol/million cells and 2.374 pmol/million cells and 1.838 pmol/million cells
same,"UTP, concentration in sample",[1]; [2],0.98 µM and 1.292 µM and 1.582 µM and 1.225 µM
same,dATP,[1]; [2],0.06549 pmol/million cells and 0.08272 pmol/million cells and 0.09306 pmol/million cells and 0.05859 pmol/million cells
same,"dATP, concentration in sample",[1]; [2],0.04366 µM and 0.05515 µM and 0.06204 µM and 0.03906 µM
same,dCTP,[1]; [2],0.05189 pmol/million cells and 0.07647 pmol/million cells and 0.09423 pmol/million cells and 0.08603 pmol/million cells
same,"dCTP, concentration in sample",[1]; [2],0.0346 µM and 0.05098 µM and 0.06282 µM and 0.05736 µM
same,dGTP,[1]; [2],0.04627 pmol/million cells and 0.03663 pmol/million cells and 0.0347 pmol/million cells and 0.05977 pmol/million cells
same,"dGTP, concentration in sample",[1]; [2],0.03085 µM and 0.02442 µM and 0.02314 µM and 0.03985 µM
same,dTTP,[1]; [2],0.3278 pmol/million cells and 0.3871 pmol/million cells and 0.4104 pmol/million cells and 0.3458 pmol/million cells
same,"dTTP, concentration in sample",[1]; [2],0.2185 µM and 0.2581 µM and 0.2736 µM and 0.2306 µM
same,ADP,[1]; [3],6.536 pmol/million cells and 8.004 pmol/million cells and 7.815 pmol/million cells and 7.971 pmol/million cells
same,"ADP, concentration in sample",[1]; [3],4.357 µM and 5.336 µM and 5.21 µM and 5.3143 µM
same,P1 transporter ΔG^0,P1 transporter,-5.45 kcal/mol
same,P1 transporter δ(ΔG^0),P1 transporter,3.97 kcal/mol
"Nc1ncnc2c1ncn2[C@@H]1O[C@H](CO)C[C@H]1O [Compound 3, cordycepin, reference compound]",P1 transporter ΔG^0,P1 transporter,-5.02 kcal/mol
same,P1 transporter δ(ΔG^0),P1 transporter,4.4 kcal/mol
"Nc1ncnc2c1ncn2[C@@H]1O[C@H](CO)[C@@H](O)[C@H]1O [Adenosine, reference compound]",P1 transporter ΔG^0,P1 transporter,-9.42 kcal/mol
"Nc1ncnc2c1c(Br)cn2[C@@H]1O[C@H](CO)C[C@H]1O [Compound 10, 3’-deoxy-7-Br-tubercidin]",Gibbs free energy recovered at P1,P1 transporter; 10 versus 9,1.41 kcal/mol
same,P1 transporter ΔG^0,P1 transporter,-6.86 kcal/mol
same,P1 transporter δ(ΔG^0),P1 transporter,2.56 kcal/mol
